This is one part of the list.
Legend:
Experiment in all cases: log2 fold change, soluble protein after heating vs DMSO (PISA); higher = thermal stabilisation; K562 cells, 10 uM, 30 min; active = over 0.2 and 3.5 SD of the protein, either way, in both replicates (recomputed)
crizotinib = compound: C[C@@H](Oc1cc(-c2cnn(C3CCNCC3)c2)cnc1N)c1c(Cl)ccc(F)c1Cl [crizotinib]
Procedure, shortened: (§1)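 Aliquots of K562 cells (2×10^6 cells/mL) treated with 10 μM compound for 30 min were heated for 3 min over 48°C-58°C. After pooling and extraction in PBS with 0.5% NP-40 at 4°C, soluble protein from a 21,000xg, 90 min spin was quantified by TMTpro 16plex LC-MS/MS with channel sums equalised. Thermal stability is expressed against control samples, from duplicates, as a log2 fold change.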

Protein sequences, listed by entry. Tags and fused reporters are not part of them. Lines headed by an entry give the natural chain unless they say otherwise; changes in a name come on top.
UniProt O95297: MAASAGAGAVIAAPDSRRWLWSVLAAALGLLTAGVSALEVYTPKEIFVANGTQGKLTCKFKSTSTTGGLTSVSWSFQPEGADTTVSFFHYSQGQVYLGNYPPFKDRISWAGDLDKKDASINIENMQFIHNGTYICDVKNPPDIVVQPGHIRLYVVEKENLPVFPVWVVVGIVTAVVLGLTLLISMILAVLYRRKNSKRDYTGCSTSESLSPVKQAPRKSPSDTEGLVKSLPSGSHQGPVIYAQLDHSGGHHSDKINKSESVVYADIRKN
UniProt Q9UHC7: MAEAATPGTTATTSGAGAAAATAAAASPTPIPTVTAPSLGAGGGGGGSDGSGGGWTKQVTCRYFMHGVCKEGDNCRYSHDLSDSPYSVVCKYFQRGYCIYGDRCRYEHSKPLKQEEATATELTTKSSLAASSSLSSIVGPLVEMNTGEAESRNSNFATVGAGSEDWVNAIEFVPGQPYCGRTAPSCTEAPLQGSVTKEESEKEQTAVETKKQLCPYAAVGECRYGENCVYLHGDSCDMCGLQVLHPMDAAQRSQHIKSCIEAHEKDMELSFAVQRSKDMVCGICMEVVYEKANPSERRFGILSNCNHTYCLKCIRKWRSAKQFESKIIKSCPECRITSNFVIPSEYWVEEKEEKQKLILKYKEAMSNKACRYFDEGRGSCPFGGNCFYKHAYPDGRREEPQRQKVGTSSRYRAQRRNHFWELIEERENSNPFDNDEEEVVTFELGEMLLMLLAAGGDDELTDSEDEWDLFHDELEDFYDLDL
UniProt Q9UI43: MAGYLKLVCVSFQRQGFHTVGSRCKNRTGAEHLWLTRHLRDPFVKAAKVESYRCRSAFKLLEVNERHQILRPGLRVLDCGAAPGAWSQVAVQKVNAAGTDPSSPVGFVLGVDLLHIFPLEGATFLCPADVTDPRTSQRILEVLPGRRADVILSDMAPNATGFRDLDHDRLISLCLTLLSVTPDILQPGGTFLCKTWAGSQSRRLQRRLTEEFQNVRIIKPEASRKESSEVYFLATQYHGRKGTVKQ
UniProt P40692: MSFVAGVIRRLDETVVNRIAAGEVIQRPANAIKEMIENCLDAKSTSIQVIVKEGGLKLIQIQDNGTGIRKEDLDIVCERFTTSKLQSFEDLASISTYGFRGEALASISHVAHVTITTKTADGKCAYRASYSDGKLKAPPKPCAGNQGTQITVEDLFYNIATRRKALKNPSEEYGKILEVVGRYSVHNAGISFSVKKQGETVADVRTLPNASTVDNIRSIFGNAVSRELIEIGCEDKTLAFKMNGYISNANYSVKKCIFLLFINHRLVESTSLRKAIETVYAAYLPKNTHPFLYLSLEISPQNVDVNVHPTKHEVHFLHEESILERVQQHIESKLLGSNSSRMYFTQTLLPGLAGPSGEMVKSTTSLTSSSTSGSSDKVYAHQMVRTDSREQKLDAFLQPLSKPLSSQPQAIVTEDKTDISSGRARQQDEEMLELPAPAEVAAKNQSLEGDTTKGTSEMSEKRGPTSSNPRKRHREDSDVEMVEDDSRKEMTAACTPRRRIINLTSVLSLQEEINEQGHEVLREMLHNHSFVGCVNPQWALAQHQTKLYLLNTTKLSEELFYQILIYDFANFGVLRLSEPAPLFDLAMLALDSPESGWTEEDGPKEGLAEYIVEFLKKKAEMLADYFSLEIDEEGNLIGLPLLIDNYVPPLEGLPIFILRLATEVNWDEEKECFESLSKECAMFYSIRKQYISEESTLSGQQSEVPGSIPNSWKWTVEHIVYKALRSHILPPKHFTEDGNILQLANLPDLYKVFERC
UniProt Q9Y605: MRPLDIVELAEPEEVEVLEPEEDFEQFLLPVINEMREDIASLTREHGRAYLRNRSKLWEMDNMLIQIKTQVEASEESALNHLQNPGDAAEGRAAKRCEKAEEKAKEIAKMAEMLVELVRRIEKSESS
UniProt Q96BX8: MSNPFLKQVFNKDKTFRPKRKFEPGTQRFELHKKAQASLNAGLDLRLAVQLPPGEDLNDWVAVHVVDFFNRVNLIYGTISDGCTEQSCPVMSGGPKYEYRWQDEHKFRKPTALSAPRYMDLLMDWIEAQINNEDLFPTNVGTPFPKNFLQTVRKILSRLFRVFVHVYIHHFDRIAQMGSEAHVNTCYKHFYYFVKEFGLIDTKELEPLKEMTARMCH
UniProt Q13201: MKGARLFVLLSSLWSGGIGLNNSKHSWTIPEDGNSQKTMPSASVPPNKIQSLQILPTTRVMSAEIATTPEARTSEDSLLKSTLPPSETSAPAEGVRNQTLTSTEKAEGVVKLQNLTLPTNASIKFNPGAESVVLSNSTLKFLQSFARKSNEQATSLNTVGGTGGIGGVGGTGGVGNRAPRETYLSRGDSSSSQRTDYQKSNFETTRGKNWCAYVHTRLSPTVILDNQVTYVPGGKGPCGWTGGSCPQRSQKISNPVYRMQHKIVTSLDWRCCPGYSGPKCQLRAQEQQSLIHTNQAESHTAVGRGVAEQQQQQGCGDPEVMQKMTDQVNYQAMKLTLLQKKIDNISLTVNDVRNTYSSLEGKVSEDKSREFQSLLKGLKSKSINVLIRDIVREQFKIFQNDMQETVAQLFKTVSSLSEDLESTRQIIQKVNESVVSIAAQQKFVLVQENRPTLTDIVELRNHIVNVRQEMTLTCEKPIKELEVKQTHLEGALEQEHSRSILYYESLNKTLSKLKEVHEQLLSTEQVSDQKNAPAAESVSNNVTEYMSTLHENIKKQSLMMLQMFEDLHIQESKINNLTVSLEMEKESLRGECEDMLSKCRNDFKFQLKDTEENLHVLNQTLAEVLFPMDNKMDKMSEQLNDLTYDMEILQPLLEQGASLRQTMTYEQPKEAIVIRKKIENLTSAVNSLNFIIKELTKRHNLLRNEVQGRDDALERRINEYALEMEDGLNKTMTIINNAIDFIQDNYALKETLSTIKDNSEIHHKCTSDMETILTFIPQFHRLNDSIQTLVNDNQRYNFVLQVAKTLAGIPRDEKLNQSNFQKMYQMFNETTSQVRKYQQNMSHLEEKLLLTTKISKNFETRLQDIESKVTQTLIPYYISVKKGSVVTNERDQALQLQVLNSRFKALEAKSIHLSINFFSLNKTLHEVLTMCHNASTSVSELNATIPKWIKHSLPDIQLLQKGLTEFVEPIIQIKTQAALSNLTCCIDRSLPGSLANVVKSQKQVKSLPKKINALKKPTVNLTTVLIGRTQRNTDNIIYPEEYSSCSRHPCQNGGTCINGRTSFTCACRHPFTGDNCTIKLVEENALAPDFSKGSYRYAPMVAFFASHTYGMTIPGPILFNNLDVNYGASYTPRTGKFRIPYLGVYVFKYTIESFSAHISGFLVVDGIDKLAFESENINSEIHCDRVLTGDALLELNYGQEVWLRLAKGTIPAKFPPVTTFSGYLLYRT
UniProt O96033: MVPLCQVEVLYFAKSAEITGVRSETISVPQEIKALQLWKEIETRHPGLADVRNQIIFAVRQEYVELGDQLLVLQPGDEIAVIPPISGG
UniProt P39210: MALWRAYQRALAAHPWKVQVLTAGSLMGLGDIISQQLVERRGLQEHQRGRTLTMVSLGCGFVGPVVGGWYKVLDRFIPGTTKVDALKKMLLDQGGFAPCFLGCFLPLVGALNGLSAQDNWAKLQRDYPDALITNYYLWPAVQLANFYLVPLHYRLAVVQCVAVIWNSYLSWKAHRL
UniProt O94851, whole entry, looked up: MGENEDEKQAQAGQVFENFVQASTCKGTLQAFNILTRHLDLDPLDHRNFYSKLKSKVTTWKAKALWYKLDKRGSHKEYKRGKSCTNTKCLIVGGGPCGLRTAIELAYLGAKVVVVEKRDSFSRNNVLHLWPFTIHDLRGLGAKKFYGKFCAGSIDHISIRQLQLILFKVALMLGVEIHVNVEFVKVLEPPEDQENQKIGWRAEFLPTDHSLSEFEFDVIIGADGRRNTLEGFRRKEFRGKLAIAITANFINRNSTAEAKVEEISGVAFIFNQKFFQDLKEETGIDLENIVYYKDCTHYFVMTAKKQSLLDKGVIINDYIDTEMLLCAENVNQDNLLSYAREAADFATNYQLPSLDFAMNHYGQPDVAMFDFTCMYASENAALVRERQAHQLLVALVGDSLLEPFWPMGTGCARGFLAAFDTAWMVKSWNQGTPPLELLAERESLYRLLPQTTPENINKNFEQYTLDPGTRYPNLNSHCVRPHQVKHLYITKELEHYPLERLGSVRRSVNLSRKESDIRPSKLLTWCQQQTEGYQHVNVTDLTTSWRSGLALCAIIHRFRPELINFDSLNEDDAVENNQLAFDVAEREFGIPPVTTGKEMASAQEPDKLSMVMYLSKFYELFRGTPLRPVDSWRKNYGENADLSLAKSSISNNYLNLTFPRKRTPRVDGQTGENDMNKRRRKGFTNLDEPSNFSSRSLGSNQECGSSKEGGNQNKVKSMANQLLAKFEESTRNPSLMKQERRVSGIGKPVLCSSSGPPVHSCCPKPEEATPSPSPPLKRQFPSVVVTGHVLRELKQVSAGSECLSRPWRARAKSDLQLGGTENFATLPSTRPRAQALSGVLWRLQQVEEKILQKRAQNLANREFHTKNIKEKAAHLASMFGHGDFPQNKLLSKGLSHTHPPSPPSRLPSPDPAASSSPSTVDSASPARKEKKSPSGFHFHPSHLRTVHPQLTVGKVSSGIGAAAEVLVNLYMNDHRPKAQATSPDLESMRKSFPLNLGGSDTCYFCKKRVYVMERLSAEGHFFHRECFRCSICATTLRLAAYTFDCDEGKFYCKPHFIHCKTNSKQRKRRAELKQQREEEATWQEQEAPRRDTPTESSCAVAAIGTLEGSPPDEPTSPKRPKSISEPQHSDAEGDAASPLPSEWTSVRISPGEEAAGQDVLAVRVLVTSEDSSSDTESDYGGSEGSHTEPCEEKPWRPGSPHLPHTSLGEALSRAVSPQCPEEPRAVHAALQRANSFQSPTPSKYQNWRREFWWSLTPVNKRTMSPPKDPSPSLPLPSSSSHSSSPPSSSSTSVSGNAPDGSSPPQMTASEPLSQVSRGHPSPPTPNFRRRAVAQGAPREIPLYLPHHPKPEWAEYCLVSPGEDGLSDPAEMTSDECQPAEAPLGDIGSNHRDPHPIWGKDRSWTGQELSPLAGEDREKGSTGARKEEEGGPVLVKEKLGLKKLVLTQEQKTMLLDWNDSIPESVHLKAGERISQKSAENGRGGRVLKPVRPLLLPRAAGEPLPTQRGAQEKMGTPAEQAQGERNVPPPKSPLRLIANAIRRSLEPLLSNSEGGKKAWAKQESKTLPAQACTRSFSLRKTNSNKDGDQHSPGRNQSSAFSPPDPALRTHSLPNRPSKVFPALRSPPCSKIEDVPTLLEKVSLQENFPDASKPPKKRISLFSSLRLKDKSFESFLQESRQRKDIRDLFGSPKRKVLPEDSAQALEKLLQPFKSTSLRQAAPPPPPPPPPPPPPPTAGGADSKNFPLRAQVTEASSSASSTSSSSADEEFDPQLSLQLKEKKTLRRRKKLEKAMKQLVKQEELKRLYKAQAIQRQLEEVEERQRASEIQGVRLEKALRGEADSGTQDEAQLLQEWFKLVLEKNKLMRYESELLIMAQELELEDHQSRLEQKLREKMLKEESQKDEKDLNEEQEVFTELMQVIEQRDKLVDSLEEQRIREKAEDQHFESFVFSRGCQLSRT
UniProt Q6NTE8: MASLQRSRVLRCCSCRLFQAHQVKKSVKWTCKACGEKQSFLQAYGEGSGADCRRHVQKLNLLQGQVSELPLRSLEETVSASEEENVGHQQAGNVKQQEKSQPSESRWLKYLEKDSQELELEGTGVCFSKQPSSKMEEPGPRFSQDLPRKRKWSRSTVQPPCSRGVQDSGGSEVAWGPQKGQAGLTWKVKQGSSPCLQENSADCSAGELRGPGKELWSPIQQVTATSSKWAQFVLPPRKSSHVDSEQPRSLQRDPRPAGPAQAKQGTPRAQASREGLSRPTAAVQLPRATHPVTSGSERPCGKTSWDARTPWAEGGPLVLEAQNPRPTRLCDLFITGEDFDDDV
UniProt Q13064: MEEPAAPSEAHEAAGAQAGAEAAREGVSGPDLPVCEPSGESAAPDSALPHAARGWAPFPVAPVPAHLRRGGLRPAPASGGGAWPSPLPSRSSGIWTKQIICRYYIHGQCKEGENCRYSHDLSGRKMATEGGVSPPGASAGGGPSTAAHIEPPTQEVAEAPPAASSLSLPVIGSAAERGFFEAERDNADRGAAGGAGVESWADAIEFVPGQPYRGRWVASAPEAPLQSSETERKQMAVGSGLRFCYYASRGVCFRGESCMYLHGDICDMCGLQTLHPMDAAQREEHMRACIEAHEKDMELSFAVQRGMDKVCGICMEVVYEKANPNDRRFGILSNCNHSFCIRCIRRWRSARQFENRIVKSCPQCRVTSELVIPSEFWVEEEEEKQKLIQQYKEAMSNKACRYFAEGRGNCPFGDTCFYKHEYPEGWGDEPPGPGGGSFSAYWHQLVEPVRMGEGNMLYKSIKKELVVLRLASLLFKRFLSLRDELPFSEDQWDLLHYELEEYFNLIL
UniProt Q9NPA3, whole entry, looked up: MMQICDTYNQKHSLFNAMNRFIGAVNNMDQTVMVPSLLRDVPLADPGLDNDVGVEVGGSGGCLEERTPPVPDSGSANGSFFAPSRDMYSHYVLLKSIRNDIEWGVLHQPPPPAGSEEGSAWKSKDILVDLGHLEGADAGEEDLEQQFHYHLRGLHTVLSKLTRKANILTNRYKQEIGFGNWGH

[1] = compound: C[C@@H]1COCCN1C2=NC(=NC(=C2)C3(CC3)S(=O)(=O)C)C4=C5C=CNC5=CC=C4
Procedure, shortened: as §1

[2] = compound: C[C@H](C1=CC=C(C=C1)C(=O)NC2=C3C=CNC3=NC=C2)N
Procedure, shortened: as §1

duvelisib = compound: C[C@H](Nc1ncnc2nc[nH]c12)c1cc2cccc(Cl)c2c(=O)n1-c1ccccc1 [duvelisib]
Procedure, shortened: as §1

gandotinib = compound: Cc1cc(Nc2cc(CN3CCOCC3)c3nc(C)c(Cc4ccc(Cl)cc4F)n3n2)n[nH]1 [gandotinib]
Procedure, shortened: as §1

tozasertib = compound: Cc1cc(Nc2cc(N3CCN(C)CC3)nc(Sc3ccc(NC(=O)C4CC4)cc3)n2)n[nH]1 [tozasertib]
Procedure, shortened: as §1

[3] = compound: Cc1cc(SCc2sc(-c3ccc(C(F)(F)F)cc3)nc2C)ccc1OCC(=O)O
Procedure, shortened: as §1

doramapimod = compound: Cc1ccc(-n2nc(C(C)(C)C)cc2NC(=O)Nc2ccc(OCCN3CCOCC3)c3ccccc23)cc1 [doramapimod]
Procedure, shortened: as §1

ispinesib = compound: Cc1ccc(C(=O)N(CCCN)[C@@H](c2nc3cc(Cl)ccc3c(=O)n2Cc2ccccc2)C(C)C)cc1 [ispinesib]
Procedure, shortened: as §1

[4] = compound: CS(=O)(=O)c1ccc(-c2cnc(N)c(C(=O)Nc3ccccc3)n2)cc1
Procedure, shortened: as §1

Measured: log2 fold change

MICB, A0A140T979
inactive: crizotinib -0.052 | [1] 0.106 | [2] 0.153 | duvelisib 0.033 | gandotinib -0.043 | tozasertib -0.037 | [3] -0.06 | doramapimod 0.082 | ispinesib -0.103

MRPL52 (UniProt Q86TS9)
inactive: [4] -0.153 | duvelisib 0.041 | [3] 0.179

MPZL1 isoform 3 (UniProt O95297)
inactive: [2] -0.097 | duvelisib 0.289 | tozasertib -0.043 | [3] 0.08

MMTAG2 (UniProt Q9BU76)
inactive: [4] -0.163 | crizotinib 0 | [2] 0.213 | duvelisib -0.037 | gandotinib 0.22 | tozasertib 0.145 | [3] -0.075 | doramapimod 0.092 | ispinesib -0.096

MKRN1 (UniProt Q9UHC7)
inactive: crizotinib 0.063 | [1] -0.198 | [2] 0.074 | gandotinib 0.187 | tozasertib 0.013 | doramapimod 0.015 | ispinesib 0.135

MICA (UniProt Q29983)
inactive: [4] 0 | gandotinib -0.045 | tozasertib -0.127 | ispinesib 0.026

MOSPD1 isoform 3 (UniProt Q9UJG1)
inactive: gandotinib -0.131

Fetched one by one from the list above, three records:
MMTAG2 (UniProt Q9BU76)
inactive: [4] -0.163 | crizotinib 0 | [2] 0.213 | duvelisib -0.037 | gandotinib 0.22 | tozasertib 0.145 | [3] -0.075 | doramapimod 0.092 | ispinesib -0.096

MICB, A0A140T979
inactive: crizotinib -0.052 | [1] 0.106 | [2] 0.153 | duvelisib 0.033 | gandotinib -0.043 | tozasertib -0.037 | [3] -0.06 | doramapimod 0.082 | ispinesib -0.103

MOSPD1 isoform 3 (UniProt Q9UJG1)
inactive: gandotinib -0.131

(continued)

MIER2 (UniProt Q8N344)
inactive: [1] 0.19 | [2] -0.15 | duvelisib 0.045 | [3] 0.035

MRM2 (UniProt Q9UI43)
inactive: [2] -0.042 | [3] 0.123

MLH1 (UniProt P40692)
inactive: [1] 0.042 | [2] -0.127 | gandotinib -0.068 | [3] 0.094

MME (UniProt P08473)
inactive: duvelisib -0.241 | [3] 0.146

MON1A (UniProt Q86VX9)
inactive: [4] 0.049 | [1] 0.057 | gandotinib 0.116 | [3] 0.011 | doramapimod 0.045 | ispinesib -0.153
active: crizotinib -0.559

MRFAP1 (UniProt Q9Y605)
inactive: [4] -0.066 | crizotinib -0.142 | [2] -0.048 | gandotinib -0.014 | [3] -0.023 | doramapimod 0.045 | ispinesib 0.016

MOB3A (UniProt Q96BX8)
inactive: [4] -0.176 | crizotinib 0.007 | [2] -0.071 | duvelisib 0.022 | gandotinib -0.08 | tozasertib 0.022 | [3] 0.115 | doramapimod -0.027 | ispinesib -0.027

MMRN1 (UniProt Q13201)
inactive: [4] 0.057 | duvelisib 0.163 | [3] 0 | ispinesib -0.021

MOCS2 (UniProt O96033)
inactive: [4] 0.129 | [2] 0.074 | duvelisib 0.081 | gandotinib -0.075 | tozasertib -0.021 | [3] -0.105

MICAL1 isoform 4 (UniProt Q8TDZ2)
inactive: [4] 0.056 | crizotinib -0.207 | [1] 0.014 | [2] 0.075 | doramapimod 0.212 | ispinesib 0.417

MPV17 (UniProt P39210)
inactive: [4] 0.059 | [1] 0.27 | [2] -0.133 | gandotinib 0.047 | tozasertib 0.016 | ispinesib -0.015

MRPL57 (UniProt Q9BQC6)
inactive: [4] 0.037 | [1] -0.258 | duvelisib -0.183 | gandotinib 0.085 | tozasertib -0.015 | [3] 0.023

MLLT10 (UniProt P55197)
inactive: [1] -0.006 | gandotinib -0.054 | ispinesib 0.276

MPC1 (UniProt Q9Y5U8)
inactive: [4] -0.106 | [2] -0.158 | duvelisib -0.061 | tozasertib 0.072 | [3] -0.207 | ispinesib 0.1

MOB2 isoform 3 (UniProt Q70IA6)
inactive: [1] -0.166 | [2] 0.044 | gandotinib -0.093 | ispinesib -0.025

MRAS (UniProt O14807)
inactive: crizotinib 0.128 | gandotinib -0.17 | doramapimod 0

MITF (UniProt O75030)
inactive: [4] 0.026 | crizotinib -0.137 | gandotinib -0.13 | doramapimod 0.006

MMADHC (UniProt Q9H3L0)
inactive: crizotinib 0.065 | [2] 0.093 | gandotinib -0.087 | [3] 0.084 | doramapimod 0.099 | ispinesib -0.038

MINDY2 (UniProt Q8NBR6)
inactive: [1] 0.063 | [2] 0.073 | tozasertib 0.075

MICAL2 (UniProt O94851)
inactive: crizotinib 0.159 | [1] -0.166 | [2] 0.266 | duvelisib -0.018 | gandotinib 0.035 | tozasertib 0.103 | [3] 0.176 | doramapimod -0.12 | ispinesib -0.348

MRNIP (UniProt Q6NTE8)
inactive: [4] 0.241 | crizotinib 0.1 | [1] -0.034 | gandotinib -0.007 | tozasertib 0.038 | doramapimod 0.05 | ispinesib -0.129

MICOS10 (UniProt Q5TGZ0)
inactive: [4] 0.085 | crizotinib 0.14 | [1] 0.222 | gandotinib -0.001 | tozasertib 0.112 | doramapimod 0.043 | ispinesib 0.011

MKRN3 (UniProt Q13064)
inactive: [4] -0.06 | crizotinib -0.023 | [1] 0.157 | duvelisib -0.01 | tozasertib -0.182 | [3] 0 | doramapimod 0.127 | ispinesib -0.028

MOB3B (UniProt Q86TA1)
inactive: crizotinib -0.078 | [2] 0.098 | gandotinib 0.039 | doramapimod 0

MKKS (UniProt Q9HB66)
inactive: [4] 0.009 | [1] 0.279 | [2] -0.153 | duvelisib -0.033 | gandotinib 0.052 | tozasertib 0.027 | [3] -0.015

MINDY4 (UniProt Q4G0A6)
inactive: [4] 0.093 | ispinesib -0.019

MID1IP1 (UniProt Q9NPA3)
inactive: [4] 0.154 | crizotinib 0.083 | [1] 0.158 | duvelisib 0.023 | gandotinib -0.034 | tozasertib 0.169 | [3] 0 | doramapimod 0.133 | ispinesib 0.067

MIGA2 (UniProt Q7L4E1)
inactive: [2] 0.373

MORC2 (UniProt Q9Y6X9)
inactive: crizotinib 0.027 | [1] 0.065 | doramapimod -0.042
